From PubChem BioAssay AID2685 (National Center for Advancing Translational Sciences (NCATS), 2010)
Some of the results follow. These are further read-outs of the screen, such as a control signal, another cell line or another target. No call is given for them. The list favours compounds with an active or inconclusive main result. Potencies come from curve fits of mixed quality, noted in brackets.

Experiment: qHTS Assay for Lipid Storage Modulators in Drosophila S3 Cells;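 for cell number change: cells counted by Cell Tracker Red CMTPX staining in the red channel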
Settings: BODIPY lipid droplet fluorescence, 18-24 h; for cell number change: measured here: cell count max response, cells fed with added oleic acid
Outline: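 Drosophila S3 cells got compounds at several concentrations plus oleic acid (400 uM solution). Laser-scanning cytometry with 488 nm excitation read lipid droplets at 500-530 nm and cells at 575-640 nm. Percent activity was relative to 20 uM Triacsin C.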

[1] = measured here: cell number channel AC50, cells fed with added oleic acid
[2] = measured here: lipid fluorescence (Fed channel) AC50, cells fed with added oleic acid

| Compound | cell number change [%] | AC50 [1] | AC50 [2] |
| --- | --- | --- | --- |
| COc1ccc(/C=N/NC(=O)CCn2c3ccccc3c3ccccc32)cc1O | -99.2 | 23.1 µM [falling, single point] | – |
| O=C(NCCCN1CCOCC1)C1CCC(=O)N1C1CCCCC1 (stereo not drawn) | 1.46 | – | 0.00517 µM [falling, full curve, poor fit] |
| COc1ccc(NC(=O)N(Cc2ccc3c(c2)OCO3)C2CC(=O)N(c3ccc(OC)cc3)C2=O)cc1 (stereo not drawn) | 45.8 | 4.11 µM [rising, full curve] | 6.51 µM [rising, single point] |
| COc1ccccc1NC(NC(=O)c1ccco1)C(=O)c1ccccc1 (stereo not drawn) | -1.41 | – | 0.366 µM [rising, full curve] |
| COc1ccc(NC(=O)C2CCN(S(=O)(=O)c3ccc(C)cc3)CC2)cc1OC | -6.52 | – | – |
| Cc1ccc(C2SCC(C(=O)O)N2C(=O)c2ccc(F)cc2)cc1 (stereo not drawn) | 1.11 | – | 14.6 µM [falling, single point] |
| COc1cc(CNCc2ccco2)ccc1OCc1ccccc1 | 30.4 | 4.11 µM [rising, partial curve, poor fit] | 6.51 µM [falling, single point] |
| COC(=O)c1c(C)oc(C)c1S(=O)(=O)NCc1ccc(Cl)cc1 | 40.5 | 20.6 µM [rising, single point] | – |
| Cc1ccc2cc(C)c3nnc(SCC(=O)N4CCN(C(=O)c5ccco5)CC4)n3c2c1 | 16.6 | – | – |
| Cc1cc(NC(=O)CN2C(=O)NC(CC(C)C)C2=O)ccc1Br (stereo not drawn) | -5.27 | – | 29.1 µM [falling, single point] |
| Cc1ccc(C(=O)NCc2cccnc2)cc1S(=O)(=O)N1CCCCCC1 | 2.29 | – | 0.00411 µM [rising, full curve, poor fit] |
| O=C(Nc1ccccc1)c1cccc(-c2nnc(-c3ccccc3)o2)c1 | – | 0.58 µM [rising, single point] | – |
| CCn1c(SCC(=O)c2cc(OC)ccc2OC)nnc1C(C)C | – | – | 29.1 µM [falling, single point] |
| CCCCCCCCNC(=O)/C(C#N)=C/c1ccccc1[N+](=O)[O-] | -67.6 | 10.3 µM [falling, partial curve, poor fit] | 5.8 µM [falling, partial curve] |
| O=C(CNC(=O)C1CCCCC1)NC1=NCCS1 | -3.43 | – | 2.91 µM [rising, single point] |
| CN(C)Cc1c(C(=O)N/N=C/c2cccs2)nnn1-c1nonc1N | -4.27 | – | 32.6 µM [rising, single point] |
| Cc1ccc(C)c(S(=O)(=O)Nc2cc(SCC(=O)O)c(O)c3ccccc23)c1 | -46.2 | 1.84 µM [falling, full curve] | 3.66 µM [rising, full curve] |
| CCOC(=O)c1cc(CC)sc1/N=C/C1C(=O)CCCC1=O | – | – | 0.0103 µM [rising, full curve, poor fit] |
| COCCOC1CCN(C(=O)C2CCC(=O)N(CCc3cccc(F)c3)C2)CC1 (stereo not drawn) | 5.34 | – | – |
| COc1ccccc1Nc1nc(N)nc(CN2CCC(C)CC2)n1 | 28.8 | – | 0.00517 µM [rising, full curve, poor fit] |
| Cn1cc(S(=O)(=O)Nc2ccc(F)c(Cl)c2)c(=O)n(C)c1=O | 12.1 | 0.82 µM [rising, full curve, poor fit] | 0.58 µM [rising, single point] |
| CC(=O)NC(CC(=O)NCC(=O)Nc1ccc(F)c(F)c1)c1ccccc1 (stereo not drawn) | 18.1 | – | 0.206 µM [falling, full curve, poor fit] |
| COC(=O)/C(=C(/F)SCC(C)=O)C(F)(F)F | -1.26 | – | 16.4 µM [falling, partial curve] |
| Clc1ccc(/C=N/c2c(-c3ccco3)nc3ccccn23)cc1 | 71.9 | 11.6 µM [rising, partial curve] | – |
| O=C(CCc1ccc(S(=O)(=O)N2CCOCC2)cc1)N/N=C/c1cccc(O)c1 | 2.07 | – | – |
| Cc1cccc(C)c1OCCCCc1c(C)n[nH]c1C | -58.5 | 32.6 µM [falling, single point] | 29.1 µM [falling, single point] |
| CC(/C=C/c1ccc(N(C)C)cc1)=N\N=C1\NC(=O)CC(C(=O)Nc2ccccc2)S1 (stereo not drawn) | 7.71 | – | 32.6 µM [falling, single point] |
| COc1ccc(-c2[nH]c(-c3ccc(SC)cc3)nc2SCC(=O)Nc2nccs2)cc1 | -41.4 | 4.61 µM [falling, full curve, poor fit] | – |
| Cc1cc(C)c(S(=O)(=O)N2CCCC(C(=O)N3CCOCC3)C2)c(C)c1 (stereo not drawn) | 15.8 | 3.26 µM [rising, single point] | 6.51 µM [rising, single point] |

Single entries from above.
In cell number change [%], CN(C)Cc1c(C(=O)N/N=C/c2cccs2)nnn1-c1nonc1N is listed with -4.27
In AC50 [1], COC(=O)c1c(C)oc(C)c1S(=O)(=O)NCc1ccc(Cl)cc1 is listed with 20.6 µM [rising, single point]
